Test results from patent publication US20080027141A1, “1,3-Dihydroxyl-9,10-anthraquinone and 3-[(3-amino)-propoxy]- 9,10-anthraquinone derivatives and pharmaceutical compositions comprising the same” (Kaohsiung Medical University, priority 2006, published 2008).
Some of these results come from one statement about several compounds together. At least one compound was matched to its structure with a doubt left.

Test system: several cancer cell lines
Experiment: Cytotoxic effects against several cancer cell lines in vitro
Assay type: cell-based

CC(C)(C)NCCCOc1ccc2c(c1)C(=O)c1ccccc1C2=O [Compound 14]
Cytotoxic effects against several cancer cell lines (in words): enhanced cytotoxic effects
